# Results taken from the supplement of paper PMC12823440, “Inhibitors supercharge kinase turnover through native proteolytic circuits” (Nature, 2025).
# Chains of the proteins cited; added tags and fusions are not shown. Lines headed by an entry give the natural chain unless they say otherwise; changes in a name come on top.
# UniProt Q15208: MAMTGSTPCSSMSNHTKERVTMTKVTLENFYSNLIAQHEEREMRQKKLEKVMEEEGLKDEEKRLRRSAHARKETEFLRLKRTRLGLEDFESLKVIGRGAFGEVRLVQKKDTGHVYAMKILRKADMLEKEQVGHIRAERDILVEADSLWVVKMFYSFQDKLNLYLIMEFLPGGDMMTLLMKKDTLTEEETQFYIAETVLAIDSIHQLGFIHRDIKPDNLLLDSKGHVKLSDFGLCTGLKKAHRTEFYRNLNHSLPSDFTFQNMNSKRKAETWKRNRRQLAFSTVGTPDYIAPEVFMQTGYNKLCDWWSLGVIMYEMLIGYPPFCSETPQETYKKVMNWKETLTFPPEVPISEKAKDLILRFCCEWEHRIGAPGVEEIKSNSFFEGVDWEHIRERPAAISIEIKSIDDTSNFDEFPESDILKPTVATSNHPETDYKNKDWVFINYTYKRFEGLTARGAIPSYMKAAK
# UniProt P42680: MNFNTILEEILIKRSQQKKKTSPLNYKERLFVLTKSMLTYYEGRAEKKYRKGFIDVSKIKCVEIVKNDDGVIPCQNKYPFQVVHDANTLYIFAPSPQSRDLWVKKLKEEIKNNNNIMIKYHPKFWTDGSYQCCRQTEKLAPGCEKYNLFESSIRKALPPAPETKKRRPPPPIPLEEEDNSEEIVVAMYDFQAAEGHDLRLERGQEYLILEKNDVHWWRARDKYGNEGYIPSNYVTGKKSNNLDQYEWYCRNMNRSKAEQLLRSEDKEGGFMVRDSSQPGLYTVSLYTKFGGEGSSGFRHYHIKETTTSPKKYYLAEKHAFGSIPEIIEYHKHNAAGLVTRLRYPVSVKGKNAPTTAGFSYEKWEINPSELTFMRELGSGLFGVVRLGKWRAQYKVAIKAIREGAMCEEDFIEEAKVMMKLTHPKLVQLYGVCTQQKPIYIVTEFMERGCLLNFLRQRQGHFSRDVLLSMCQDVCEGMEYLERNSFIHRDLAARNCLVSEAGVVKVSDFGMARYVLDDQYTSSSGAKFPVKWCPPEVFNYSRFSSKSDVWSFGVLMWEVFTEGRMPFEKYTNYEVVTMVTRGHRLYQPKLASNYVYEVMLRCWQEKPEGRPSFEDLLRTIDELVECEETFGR
# UniProt P00519, whole entry: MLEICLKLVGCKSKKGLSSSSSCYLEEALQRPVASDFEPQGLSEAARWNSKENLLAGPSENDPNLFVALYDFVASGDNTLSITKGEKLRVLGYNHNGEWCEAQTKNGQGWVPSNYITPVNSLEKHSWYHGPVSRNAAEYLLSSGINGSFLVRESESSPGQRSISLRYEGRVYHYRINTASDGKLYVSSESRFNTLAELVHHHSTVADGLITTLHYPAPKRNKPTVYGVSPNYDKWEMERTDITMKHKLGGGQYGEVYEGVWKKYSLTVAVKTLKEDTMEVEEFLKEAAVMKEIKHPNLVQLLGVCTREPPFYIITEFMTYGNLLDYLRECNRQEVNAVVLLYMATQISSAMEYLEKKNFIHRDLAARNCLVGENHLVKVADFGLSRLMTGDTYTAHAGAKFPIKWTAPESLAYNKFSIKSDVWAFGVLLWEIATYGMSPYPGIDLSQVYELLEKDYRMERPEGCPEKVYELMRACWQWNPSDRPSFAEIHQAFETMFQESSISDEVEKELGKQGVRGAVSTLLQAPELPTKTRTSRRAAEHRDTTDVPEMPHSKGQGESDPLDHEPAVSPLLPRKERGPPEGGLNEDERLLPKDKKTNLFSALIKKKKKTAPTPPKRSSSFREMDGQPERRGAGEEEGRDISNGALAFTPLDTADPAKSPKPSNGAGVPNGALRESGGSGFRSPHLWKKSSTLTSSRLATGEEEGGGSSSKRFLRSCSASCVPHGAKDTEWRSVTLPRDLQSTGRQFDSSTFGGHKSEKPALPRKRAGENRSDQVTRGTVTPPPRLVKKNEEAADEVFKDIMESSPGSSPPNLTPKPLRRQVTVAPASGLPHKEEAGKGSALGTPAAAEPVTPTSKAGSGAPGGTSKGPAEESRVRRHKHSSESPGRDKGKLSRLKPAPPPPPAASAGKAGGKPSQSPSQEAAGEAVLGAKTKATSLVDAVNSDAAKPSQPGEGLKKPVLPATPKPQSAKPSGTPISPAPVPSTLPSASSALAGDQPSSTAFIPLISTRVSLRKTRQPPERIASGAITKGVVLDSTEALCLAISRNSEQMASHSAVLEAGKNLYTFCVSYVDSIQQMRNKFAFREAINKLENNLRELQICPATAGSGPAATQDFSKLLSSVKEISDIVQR
# UniProt P31749: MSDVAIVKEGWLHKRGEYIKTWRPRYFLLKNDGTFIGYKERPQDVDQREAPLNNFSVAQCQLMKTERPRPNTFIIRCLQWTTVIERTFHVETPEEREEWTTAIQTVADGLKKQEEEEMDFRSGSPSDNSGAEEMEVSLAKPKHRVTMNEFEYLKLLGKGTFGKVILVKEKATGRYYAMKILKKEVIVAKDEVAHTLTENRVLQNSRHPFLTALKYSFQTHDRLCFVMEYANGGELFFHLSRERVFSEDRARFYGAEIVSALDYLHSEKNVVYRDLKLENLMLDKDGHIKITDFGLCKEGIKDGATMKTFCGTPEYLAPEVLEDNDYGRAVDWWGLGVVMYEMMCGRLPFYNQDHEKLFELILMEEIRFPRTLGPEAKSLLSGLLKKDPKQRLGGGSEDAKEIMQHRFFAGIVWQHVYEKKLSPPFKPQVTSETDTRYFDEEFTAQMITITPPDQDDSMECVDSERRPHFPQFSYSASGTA
# UniProt P10398: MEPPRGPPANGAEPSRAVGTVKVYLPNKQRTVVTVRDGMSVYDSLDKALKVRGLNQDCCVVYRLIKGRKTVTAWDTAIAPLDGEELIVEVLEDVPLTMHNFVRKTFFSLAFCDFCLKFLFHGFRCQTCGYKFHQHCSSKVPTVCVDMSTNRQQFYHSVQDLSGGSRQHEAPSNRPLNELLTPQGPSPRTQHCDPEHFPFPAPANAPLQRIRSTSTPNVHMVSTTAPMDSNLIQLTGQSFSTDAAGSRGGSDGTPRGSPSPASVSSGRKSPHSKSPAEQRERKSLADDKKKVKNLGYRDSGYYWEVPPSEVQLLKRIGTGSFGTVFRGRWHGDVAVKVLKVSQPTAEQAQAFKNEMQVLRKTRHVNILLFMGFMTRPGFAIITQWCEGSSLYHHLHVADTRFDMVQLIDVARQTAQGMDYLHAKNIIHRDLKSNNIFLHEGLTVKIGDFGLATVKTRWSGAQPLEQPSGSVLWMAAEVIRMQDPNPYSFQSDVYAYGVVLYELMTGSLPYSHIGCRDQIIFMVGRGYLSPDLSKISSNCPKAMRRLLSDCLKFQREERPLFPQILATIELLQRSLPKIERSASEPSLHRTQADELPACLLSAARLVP
# UniProt Q96GD4, whole entry: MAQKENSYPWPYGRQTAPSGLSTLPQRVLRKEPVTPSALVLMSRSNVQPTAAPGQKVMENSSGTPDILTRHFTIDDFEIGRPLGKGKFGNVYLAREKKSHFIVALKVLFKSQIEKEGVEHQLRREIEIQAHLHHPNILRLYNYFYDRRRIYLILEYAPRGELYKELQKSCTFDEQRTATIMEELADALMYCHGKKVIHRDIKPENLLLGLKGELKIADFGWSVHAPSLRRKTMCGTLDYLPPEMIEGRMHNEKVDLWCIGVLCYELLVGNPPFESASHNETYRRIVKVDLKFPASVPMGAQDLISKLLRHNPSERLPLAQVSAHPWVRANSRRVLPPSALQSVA
# UniProt Q9UQB9: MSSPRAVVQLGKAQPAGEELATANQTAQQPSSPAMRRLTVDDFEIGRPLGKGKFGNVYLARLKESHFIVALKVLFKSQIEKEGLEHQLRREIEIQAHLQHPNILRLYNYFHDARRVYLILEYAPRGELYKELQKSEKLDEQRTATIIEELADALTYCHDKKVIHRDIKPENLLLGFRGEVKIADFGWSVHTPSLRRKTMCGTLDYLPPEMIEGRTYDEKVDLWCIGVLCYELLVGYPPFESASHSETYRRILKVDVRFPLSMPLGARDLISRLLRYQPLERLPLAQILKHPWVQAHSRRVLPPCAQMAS
# UniProt P51451: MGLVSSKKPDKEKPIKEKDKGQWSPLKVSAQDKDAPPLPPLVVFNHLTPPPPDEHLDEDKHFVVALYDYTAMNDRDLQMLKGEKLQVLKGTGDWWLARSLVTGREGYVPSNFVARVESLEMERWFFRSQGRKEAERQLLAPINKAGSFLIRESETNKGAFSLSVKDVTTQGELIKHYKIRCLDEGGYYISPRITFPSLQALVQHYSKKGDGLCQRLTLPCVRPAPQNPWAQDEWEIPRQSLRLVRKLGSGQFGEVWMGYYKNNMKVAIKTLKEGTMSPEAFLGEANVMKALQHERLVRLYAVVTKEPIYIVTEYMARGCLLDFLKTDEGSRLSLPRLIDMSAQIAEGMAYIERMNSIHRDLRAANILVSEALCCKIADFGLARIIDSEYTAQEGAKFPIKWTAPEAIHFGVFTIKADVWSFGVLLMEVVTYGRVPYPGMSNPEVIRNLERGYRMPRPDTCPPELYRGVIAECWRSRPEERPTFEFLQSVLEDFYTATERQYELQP
# UniProt P51813: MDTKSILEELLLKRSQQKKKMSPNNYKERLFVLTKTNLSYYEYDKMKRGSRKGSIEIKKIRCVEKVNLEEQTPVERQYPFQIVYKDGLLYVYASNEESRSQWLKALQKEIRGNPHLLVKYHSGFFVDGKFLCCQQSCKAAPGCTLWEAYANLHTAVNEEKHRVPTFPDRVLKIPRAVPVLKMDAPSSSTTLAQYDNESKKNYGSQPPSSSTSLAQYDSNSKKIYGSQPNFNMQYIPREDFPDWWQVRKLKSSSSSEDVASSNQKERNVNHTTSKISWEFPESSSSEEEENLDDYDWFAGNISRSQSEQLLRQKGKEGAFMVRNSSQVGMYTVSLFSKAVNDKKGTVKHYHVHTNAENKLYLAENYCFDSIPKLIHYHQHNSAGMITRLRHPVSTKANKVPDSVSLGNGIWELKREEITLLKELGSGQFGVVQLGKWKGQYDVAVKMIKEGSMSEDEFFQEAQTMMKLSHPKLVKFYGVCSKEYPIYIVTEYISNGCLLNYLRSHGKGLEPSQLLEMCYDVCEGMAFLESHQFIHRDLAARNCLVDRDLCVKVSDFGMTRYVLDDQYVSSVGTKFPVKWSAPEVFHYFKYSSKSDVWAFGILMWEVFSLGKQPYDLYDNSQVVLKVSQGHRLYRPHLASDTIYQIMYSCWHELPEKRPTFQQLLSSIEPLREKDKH
# UniProt P15056, whole entry, looked up: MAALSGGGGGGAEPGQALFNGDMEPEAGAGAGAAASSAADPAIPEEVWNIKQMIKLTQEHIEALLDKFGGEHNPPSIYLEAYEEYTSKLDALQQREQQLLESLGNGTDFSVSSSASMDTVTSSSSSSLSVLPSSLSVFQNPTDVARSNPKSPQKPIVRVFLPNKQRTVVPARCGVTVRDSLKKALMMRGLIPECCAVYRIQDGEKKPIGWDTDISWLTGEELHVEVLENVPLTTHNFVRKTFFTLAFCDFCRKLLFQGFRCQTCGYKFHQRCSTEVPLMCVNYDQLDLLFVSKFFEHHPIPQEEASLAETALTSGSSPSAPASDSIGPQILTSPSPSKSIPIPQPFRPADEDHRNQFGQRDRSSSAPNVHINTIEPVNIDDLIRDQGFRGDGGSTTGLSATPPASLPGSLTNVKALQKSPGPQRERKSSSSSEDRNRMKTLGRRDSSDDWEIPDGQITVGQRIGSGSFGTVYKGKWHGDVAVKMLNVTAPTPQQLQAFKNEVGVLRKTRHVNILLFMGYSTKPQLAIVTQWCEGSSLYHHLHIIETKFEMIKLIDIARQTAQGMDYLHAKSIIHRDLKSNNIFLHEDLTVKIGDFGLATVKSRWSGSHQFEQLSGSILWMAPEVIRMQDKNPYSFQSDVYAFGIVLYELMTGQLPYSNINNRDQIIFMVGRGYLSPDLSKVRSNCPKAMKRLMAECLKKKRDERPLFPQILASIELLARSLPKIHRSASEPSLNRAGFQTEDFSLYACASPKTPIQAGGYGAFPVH
# UniProt Q06187: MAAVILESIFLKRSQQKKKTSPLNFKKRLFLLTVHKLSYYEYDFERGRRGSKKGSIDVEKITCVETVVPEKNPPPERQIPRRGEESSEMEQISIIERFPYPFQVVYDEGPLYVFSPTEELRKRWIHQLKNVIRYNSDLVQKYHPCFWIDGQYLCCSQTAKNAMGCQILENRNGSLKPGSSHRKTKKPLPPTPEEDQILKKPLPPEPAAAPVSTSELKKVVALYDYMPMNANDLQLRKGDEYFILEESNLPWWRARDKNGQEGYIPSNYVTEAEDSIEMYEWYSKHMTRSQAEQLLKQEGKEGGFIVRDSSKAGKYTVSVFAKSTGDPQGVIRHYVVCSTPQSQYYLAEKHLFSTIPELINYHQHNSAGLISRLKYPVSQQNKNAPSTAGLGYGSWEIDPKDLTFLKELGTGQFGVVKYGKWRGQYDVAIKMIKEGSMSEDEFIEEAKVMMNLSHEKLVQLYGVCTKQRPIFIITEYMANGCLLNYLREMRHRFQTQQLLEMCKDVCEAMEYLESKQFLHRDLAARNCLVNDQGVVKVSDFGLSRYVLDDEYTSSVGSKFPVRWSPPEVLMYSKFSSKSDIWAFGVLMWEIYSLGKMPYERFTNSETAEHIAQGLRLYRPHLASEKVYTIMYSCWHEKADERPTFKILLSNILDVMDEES
# Where a name gives a salt, the structure may show the parent alone. Some of the results follow. Hit calls seldom repeat between salt and free forms of one compound.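 In K562 cells expressing nanoluciferase-fused kinases, luminescence was recorded at 4 h intervals between 2 and 18 h, normalized as percent of control with DMSO at 100% and a positive control at 0%. A significant (2 sigma) signal drop marks a time point as decreased. The authors' rule for a hit is not shown and takes in more than the number of time points.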
# Key:
# Conditions in all cases: K562; 2-18 h
# STK38 = STK38 (UniProt Q15208); assay: kinase-Nluc reporter destabilization hit call (1 = scored as downregulated) (binary); higher = compound decreases kinase abundance
# SYK = SYK (UniProt P43405); assay: as above
# TEC = TEC (UniProt P42680); assay: as above
# TYK2 = TYK2 (UniProt P29597); assay: as above
# ULK3 = ULK3 (UniProt Q6PHR2); assay: as above
# YES1 = YES1 (UniProt P07947); assay: as above
# ZAK = ZAK (UniProt Q9NYL2); assay: as above
# ZAP70 = ZAP70 (UniProt P43403); assay: as above
# ABL1 = ABL1 (UniProt P00519); assay: number of time points (of 5) at which kinase-Nluc abundance scored as decreased, DMSO-normalised (count); higher = more persistent destabilization
# AKT1 = AKT1 (UniProt P31749); assay: as above
# ALK = ALK (UniProt Q9UM73); assay: as above
# ARAF = ARAF (UniProt P10398); assay: as above
# AURKA = AURKA (UniProt O14965); assay: as above
# AURKB = AURKB (UniProt Q96GD4); assay: as above
# AURKC = AURKC (UniProt Q9UQB9); assay: as above
# BLK = BLK (UniProt P51451); assay: as above
# BMX = BMX (UniProt P51813); assay: as above
# BRAF = BRAF (UniProt P15056); assay: as above
# BRAF_V600E = assay: as above
# BTK = BTK (UniProt Q06187); assay: as above
Compound,kinase-Nluc reporter destabilization hit call (STK38),kinase-Nluc reporter destabilization hit call (SYK),kinase-Nluc reporter destabilization hit call (TEC),kinase-Nluc reporter destabilization hit call (TYK2),kinase-Nluc reporter destabilization hit call (ULK3),kinase-Nluc reporter destabilization hit call (YES1),kinase-Nluc reporter destabilization hit call (ZAK),kinase-Nluc reporter destabilization hit call (ZAP70),number of time points (ABL1),number of time points (AKT1),number of time points (ALK),number of time points (ARAF),number of time points (AURKA),number of time points (AURKB),number of time points (AURKC),number of time points (BLK),number of time points (BMX),number of time points (BRAF),number of time points (BRAF_V600E),number of time points (BTK)
CN1CCN(c2ccc(Nc3cc(-c4cccc(-n5ccc6cc(C7CC7)cc(F)c6c5=O)c4CO)cn(C)c3=O)nc2)CC1 (2.5 µM),inactive: 0,inactive: 0,inactive: 0,inactive: 0,inactive: 0,inactive: 0,inactive: 0,inactive: 0,0,0,0,0,0,0,0,0,0,0,0,–
C=CC(=O)N[C@H]1COC[C@H]1Nc1ncc2cc(-c3c(Cl)c(OC)cc(OC)c3Cl)c(=O)n(C)c2n1 (10 µM),inactive: 0,inactive: 0,inactive: 0,inactive: 0,inactive: 0,inactive: 0,inactive: 0,inactive: 0,0,0,0,0,0,0,0,0,0,0,0,0
CCN1C(=O)N(c2c(F)c(OC)cc(OC)c2F)Cc2cnc3[nH]c(CN4CCOCC4)cc3c21 [Pemigatinib] (10 µM),inactive: 0,inactive: 0,inactive: 0,inactive: 0,inactive: 0,inactive: 0,inactive: 0,inactive: 0,0,0,0,0,0,0,0,0,0,0,0,0
Cc1cccc(Cn2nc(C3CC3)c3c(NC(=O)c4cnc5cc(OCCN6CCN(C)CC6)ccn45)cccc32)n1 (10 µM),inactive: 0,inactive: 0,inactive: 0,inactive: 0,inactive: 0,inactive: 0,inactive: 0,inactive: 0,0,0,0,0,0,0,0,0,0,0,0,0
CN(C)C[C@@H]1CCn2cc(c3ccccc32)C2=C(C(=O)NC2=O)c2cn(c3ccccc23)CCO1 [Ruboxistaurin (hydrochloride)] (10 µM),inactive: 0,inactive: 0,inactive: 0,inactive: 0,inactive: 0,inactive: 0,inactive: 0,inactive: 0,0,0,0,0,0,0,0,0,0,0,0,–
COc1cc(N2CCC(N)CC2)ccc1Nc1ncc(Cl)c(-c2c[nH]c3ccccc23)n1 (2.5 µM),inactive: 0,inactive: 0,inactive: 0,inactive: 0,inactive: 0,inactive: 0,inactive: 0,inactive: 0,0,0,0,0,0,0,0,0,0,0,0,0
C=CC(=O)N1CCC[C@@H](n2nc(-c3ccc(Oc4ccccc4)cc3)c(C(N)=O)c2N)C1 [Btk inhibitor 2] (10 µM),inactive: 0,inactive: 0,inactive: 0,inactive: 0,inactive: 0,inactive: 0,inactive: 0,inactive: 0,0,0,0,0,0,0,0,0,0,0,0,–
O=C1NCCc2[nH]c(-c3ccnc(-c4cnc5ccccc5c4)c3)cc21 (10 µM),inactive: 0,inactive: 0,inactive: 0,inactive: 0,inactive: 0,inactive: 0,inactive: 0,inactive: 0,0,0,0,0,0,0,0,0,0,0,0,–
CC(C)=CC/C=C(\C)[C@H]1CC[C@]2(C)[C@@H]1[C@H](O)C[C@@H]1[C@@]3(C)CC[C@H](O[C@@H]4O[C@H](CO)[C@@H](O)[C@H](O)[C@H]4O[C@@H]4O[C@H](CO)[C@@H](O)[C@H](O)[C@H]4O)C(C)(C)[C@@H]3CC[C@]12C [Ginsenoside Rg5] (10 µM),inactive: 0,inactive: 0,inactive: 0,inactive: 0,inactive: 0,inactive: 0,inactive: 0,inactive: 0,0,0,0,0,0,0,0,0,0,0,0,0
CCN1CCN(c2ccc(Nc3cc(N(C)C(=O)Nc4c(Cl)c(OC)cc(OC)c4Cl)ncn3)cc2)CC1 [Infigratinib] (10 µM),inactive: 0,inactive: 0,inactive: 0,inactive: 0,inactive: 0,inactive: 0,inactive: 0,inactive: 0,0,0,0,0,0,0,0,0,0,0,0,–
N#Cc1ccc2[nH]c(O)c(-c3ccc(CN4CCOCC4)cn3)c2c1 (10 µM),inactive: 0,inactive: 0,inactive: 0,inactive: 0,inactive: 0,inactive: 0,inactive: 0,inactive: 0,0,0,0,0,0,0,0,0,0,0,0,–
O=C1Cc2c([nH]c3ccc(Br)cc23)-c2ncccc2N1 [1-Azakenpaullone] (10 µM),inactive: 0,inactive: 0,inactive: 0,inactive: 0,inactive: 0,inactive: 0,inactive: 0,inactive: 0,0,0,0,0,0,0,0,0,0,0,0,0
CCCCOc1c(C(=O)c2c(F)cc(C)cc2F)c[nH]c2nncc1-2 (10 µM),inactive: 0,inactive: 0,inactive: 0,inactive: 0,inactive: 0,inactive: 0,inactive: 0,inactive: 0,0,0,0,0,0,0,0,0,0,0,0,0
CC(C)(/C=C(\C#N)C(=O)N1CCC[C@@H](n2nc(-c3ccc(Oc4ccccc4)cc3F)c3c(N)ncnc32)C1)N1CCN(C2COC2)CC1 (2.5 µM),inactive: 0,inactive: 0,inactive: 0,inactive: 0,inactive: 0,inactive: 0,inactive: 0,inactive: 0,0,0,0,0,0,0,0,0,0,0,0,–
O=C(O)CCNC(=O)c1ccc(/N=N/c2ccc(O)c(C(=O)O)c2)cc1 [Balsalazide] (10 µM),inactive: 0,inactive: 0,inactive: 0,inactive: 0,inactive: 0,inactive: 0,inactive: 0,inactive: 0,0,0,0,0,0,0,0,0,0,0,0,0
COc1c(CC=C(C)C)c(O)cc2oc(=O)c(-c3ccc(O)cc3O)cc12 [Glycycoumarin] (10 µM),inactive: 0,inactive: 0,inactive: 0,inactive: 0,inactive: 0,inactive: 0,inactive: 0,inactive: 0,0,0,0,0,0,0,0,0,0,0,0,0
Cn1c(=O)c(Oc2ccc(F)cc2F)cc2cnc(NC3CCOCC3)nc21 [R1487 (Hydrochloride)] (10 µM),inactive: 0,inactive: 0,inactive: 0,inactive: 0,inactive: 0,inactive: 0,inactive: 0,inactive: 0,0,0,0,0,0,0,0,0,0,0,0,0
NS(=O)(=O)c1ccc(Nc2nc(OCC3CCCCC3)c3[nH]cnc3n2)cc1 (10 µM),inactive: 0,inactive: 0,inactive: 0,inactive: 0,inactive: 0,inactive: 0,inactive: 0,inactive: 0,0,0,0,0,0,0,0,0,0,0,0,0
Cc1ccc(NC(=O)Nc2nnc(Sc3ncnc4cc(OCCCN5CCOCC5)ccc34)s2)cc1 (10 µM),inactive: 0,inactive: 0,inactive: 0,inactive: 0,inactive: 0,inactive: 0,inactive: 0,inactive: 0,0,0,0,0,0,0,0,0,0,0,0,0
Oc1cc(O)cc(/C=C/c2ccc(O)c(O)c2)c1 [Piceatannol] (10 µM),inactive: 0,inactive: 0,inactive: 0,inactive: 0,inactive: 0,inactive: 0,inactive: 0,inactive: 0,3,0,2,0,2,0,0,0,4,0,3,–
CC(C)n1cnc2c(NCc3cccc(C(F)(F)F)c3)ncnc21 [Longdaysin] (10 µM),inactive: 0,inactive: 0,inactive: 0,inactive: 0,inactive: 0,inactive: 0,inactive: 0,inactive: 0,0,0,0,0,0,0,0,0,0,0,0,0
O=c1oc2ccccc2c(O)c1Cc1c(O)c2ccccc2oc1=O [Dicoumarol] (10 µM),inactive: 0,inactive: 0,inactive: 0,inactive: 0,inactive: 0,inactive: 0,inactive: 0,inactive: 0,0,0,0,0,0,0,0,0,0,0,0,0

# Two compounds drawn at random from the list so far:
Compound,kinase-Nluc reporter destabilization hit call (STK38),kinase-Nluc reporter destabilization hit call (SYK),kinase-Nluc reporter destabilization hit call (TEC),kinase-Nluc reporter destabilization hit call (TYK2),kinase-Nluc reporter destabilization hit call (ULK3),kinase-Nluc reporter destabilization hit call (YES1),kinase-Nluc reporter destabilization hit call (ZAK),kinase-Nluc reporter destabilization hit call (ZAP70),number of time points (ABL1),number of time points (AKT1),number of time points (ALK),number of time points (ARAF),number of time points (AURKA),number of time points (AURKB),number of time points (AURKC),number of time points (BLK),number of time points (BMX),number of time points (BRAF),number of time points (BRAF_V600E),number of time points (BTK)
CCN1CCN(c2ccc(Nc3cc(N(C)C(=O)Nc4c(Cl)c(OC)cc(OC)c4Cl)ncn3)cc2)CC1 [Infigratinib] (10 µM),inactive: 0,inactive: 0,inactive: 0,inactive: 0,inactive: 0,inactive: 0,inactive: 0,inactive: 0,0,0,0,0,0,0,0,0,0,0,0,–
CC(C)(/C=C(\C#N)C(=O)N1CCC[C@@H](n2nc(-c3ccc(Oc4ccccc4)cc3F)c3c(N)ncnc32)C1)N1CCN(C2COC2)CC1 (2.5 µM),inactive: 0,inactive: 0,inactive: 0,inactive: 0,inactive: 0,inactive: 0,inactive: 0,inactive: 0,0,0,0,0,0,0,0,0,0,0,0,–
